PubChem BioAssay AID1053209, Peter MacCallum Cancer Centre, 2014
The deposit covers about 1,580 reagents; shown is an unselected part. In the full data, 207 (13%) were called active. 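Rows are single siRNAs; four siRNAs per gene were tested, a gene counting as confirmed only when at least two agree.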 Entries without a mark were called inactive. Reagents against one gene are numbered here. No sequences are given here.

- Screen: 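Follow-up of single siRNAs that strengthen doxorubicin killing in osteosarcoma cells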 (follow-up of hits)
- Cells: mouse primary osteosarcoma cells
- Reagent: single siRNA against mouse genes, 25 nM (text also states 40 nM)
- Time to read-out: about 120 h (48 h before drug, then 72 h with drug)
- Treatment: doxorubicin 100 nM (about IC30-40), added 48 h after transfection, for 72 h
- Measured: 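ATP-based luminescent viability, with or without doxorubicin, relative to non-targeting control NT1, mean of two replicates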
- Reading the numbers: viability with doxorubicin, vs NT1: higher = more viable cells under doxorubicin; viability ratio, doxorubicin over no drug: higher = less sensitisation to doxorubicin; viability without drug, vs NT1: higher = more viable cells without drug
- Call rule: 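Counted as active (class LC dox) if viability falls to 0.7 of NT1 or below under doxorubicin but stays within 0.7 to 1.1 without drug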

| gene knocked down | reagent | combined effect class | viability with doxorubicin, vs NT1 | viability ratio, doxorubicin over no drug | viability without drug, vs NT1 |
| --- | --- | --- | --- | --- | --- |
| Cdc45 (GeneID 12544) | 1 | low viability only with doxorubicin; normal without drug (active) | 0.41 | 0.56 | 0.73 |
| Cdc45 (GeneID 12544) | 2 | normal viability with and without drug | 0.77 | 0.92 | 0.84 |
| Cdc45 (GeneID 12544) | 3 | normal viability with and without drug | 1.08 | 1.09 | 0.99 |
| Cdc45 (GeneID 12544) | 4 | normal viability with and without drug | 1.04 | 1.04 | 1 |
| Rnps1 (GeneID 19826) | 1 | normal viability with and without drug | 1 | 1.03 | 0.97 |
| Rnps1 (GeneID 19826) | 2 | low viability only with doxorubicin; normal without drug (active) | 0.67 | 0.84 | 0.8 |
| Rnps1 (GeneID 19826) | 3 | normal viability with and without drug | 0.8 | 0.89 | 0.9 |
| Rnps1 (GeneID 19826) | 4 | normal viability with and without drug | 0.83 | 1 | 0.83 |
| Perm1 (GeneID 74183) | 1 | high viability only with doxorubicin | 1.17 | 1.08 | 1.08 |
| Perm1 (GeneID 74183) | 2 | low viability only with doxorubicin; normal without drug (active) | 0.7 | 0.75 | 0.93 |
| Perm1 (GeneID 74183) | 3 | normal viability with and without drug | 0.8 | 0.85 | 0.94 |
| Perm1 (GeneID 74183) | 4 | normal viability with and without drug | 0.72 | 0.81 | 0.89 |
| Eef1a1 (GeneID 13627) | 1 | normal viability with and without drug | 0.85 | 0.87 | 0.98 |
| Eef1a1 (GeneID 13627) | 2 | low viability only with doxorubicin; normal without drug (active) | 0.62 | 0.76 | 0.82 |
| Eef1a1 (GeneID 13627) | 3 | low viability only with doxorubicin; normal without drug (active) | 0.62 | 0.86 | 0.72 |
| Eef1a1 (GeneID 13627) | 4 | low viability with and without drug | 0.43 | 0.9 | 0.48 |
| Rpl37a (GeneID 19981) | 1 | low viability with and without drug | 0.18 | 0.43 | 0.42 |
| Rpl37a (GeneID 19981) | 2 | low viability with and without drug | 0.32 | 0.82 | 0.39 |
| Rpl37a (GeneID 19981) | 3 | low viability with and without drug | 0.34 | 0.59 | 0.58 |
| Rpl37a (GeneID 19981) | 4 | low viability with and without drug | 0.31 | 0.67 | 0.46 |
| Top2a (GeneID 21973) | 1 | high viability only with doxorubicin | 1.29 | 1.29 | 1 |
| Top2a (GeneID 21973) | 2 | normal viability with and without drug | 1.02 | 1.01 | 1.01 |
| Top2a (GeneID 21973) | 3 | high viability only with doxorubicin | 1.15 | 1.31 | 0.88 |
| Top2a (GeneID 21973) | 4 | high viability only with doxorubicin | 1.21 | 1.44 | 0.84 |
| Cpq (GeneID 54381) | 1 | normal viability with and without drug | 1.04 | 1.07 | 0.97 |
| Cpq (GeneID 54381) | 2 | normal viability with and without drug | 0.76 | 0.86 | 0.88 |
| Cpq (GeneID 54381) | 3 | normal viability with and without drug | 0.92 | 0.96 | 0.96 |
| Cpq (GeneID 54381) | 4 | normal viability with and without drug | 1.07 | 1.26 | 0.85 |
| Snrpg (GeneID 68011) | 1 | normal viability with and without drug | 0.73 | 0.89 | 0.82 |
| Snrpg (GeneID 68011) | 2 | low viability with and without drug | 0.24 | 0.8 | 0.3 |
| Snrpg (GeneID 68011) | 3 | low viability with and without drug | 0.24 | 0.83 | 0.29 |
| Snrpg (GeneID 68011) | 4 | low viability with and without drug | 0.35 | 0.87 | 0.4 |
| Nup107 (GeneID 103468) | 1 | low viability with and without drug | 0.43 | 0.65 | 0.66 |
| Nup107 (GeneID 103468) | 2 | normal viability with and without drug | 0.76 | 0.86 | 0.88 |
| Nup107 (GeneID 103468) | 3 | low viability only with doxorubicin; normal without drug (active) | 0.44 | 0.56 | 0.78 |
| Nup107 (GeneID 103468) | 4 | low viability only with doxorubicin; normal without drug (active) | 0.7 | 0.8 | 0.88 |
| Prpf6 (GeneID 68879) | 1 | normal viability with and without drug | 0.9 | 1.01 | 0.89 |
| Prpf6 (GeneID 68879) | 2 | low viability only with doxorubicin; normal without drug (active) | 0.6 | 0.83 | 0.72 |
| Prpf6 (GeneID 68879) | 3 | low viability only with doxorubicin; normal without drug (active) | 0.68 | 0.76 | 0.9 |
| Prpf6 (GeneID 68879) | 4 | normal viability with and without drug | 0.82 | 0.85 | 0.97 |

Next part; the last 2 above are carried over.
| gene knocked down | reagent | combined effect class | viability with doxorubicin, vs NT1 | viability ratio, doxorubicin over no drug | viability without drug, vs NT1 |
| --- | --- | --- | --- | --- | --- |
| Prpf6 (GeneID 68879) | 3 | low viability only with doxorubicin; normal without drug (active) | 0.68 | 0.76 | 0.9 |
| Prpf6 (GeneID 68879) | 4 | normal viability with and without drug | 0.82 | 0.85 | 0.97 |
| Itih1 (GeneID 16424) | 1 | normal viability with and without drug | 0.82 | 0.96 | 0.85 |
| Itih1 (GeneID 16424) | 2 | normal viability with and without drug | 0.99 | 0.93 | 1.06 |
| Itih1 (GeneID 16424) | 3 | low viability only with doxorubicin; normal without drug (active) | 0.63 | 0.73 | 0.86 |
| Itih1 (GeneID 16424) | 4 | normal viability with and without drug | 0.98 | 0.98 | 1 |
| Sf3b1 (GeneID 81898) | 1 | low viability only with doxorubicin; normal without drug (active) | 0.49 | 0.56 | 0.88 |
| Sf3b1 (GeneID 81898) | 2 | low viability only with doxorubicin; normal without drug (active) | 0.55 | 0.59 | 0.94 |
| Sf3b1 (GeneID 81898) | 3 | low viability with and without drug | 0.1 | 0.2 | 0.49 |
| Sf3b1 (GeneID 81898) | 4 | low viability with and without drug | 0.09 | 0.35 | 0.26 |
| Med8 (GeneID 80509) | 1 | low viability only with doxorubicin; normal without drug (active) | 0.58 | 0.65 | 0.89 |
| Med8 (GeneID 80509) | 2 | normal viability with and without drug | 0.94 | 1.02 | 0.92 |
| Med8 (GeneID 80509) | 3 | normal viability with and without drug | 0.86 | 0.85 | 1.01 |
| Med8 (GeneID 80509) | 4 | high viability only with doxorubicin | 1.12 | 1.14 | 0.98 |
| Rps7 (GeneID 20115) | 1 | low viability with and without drug | 0.42 | 0.81 | 0.52 |
| Rps7 (GeneID 20115) | 2 | low viability with and without drug | 0.33 | 1 | 0.33 |
| Rps7 (GeneID 20115) | 3 | low viability with and without drug | 0.37 | 0.92 | 0.4 |
| Rps7 (GeneID 20115) | 4 | low viability with and without drug | 0.32 | 0.94 | 0.34 |
| Pabpc1 (GeneID 18458) | 1 | normal viability with and without drug | 1.04 | 1.11 | 0.94 |
| Pabpc1 (GeneID 18458) | 2 | low viability with and without drug | 0.55 | 0.81 | 0.68 |
| Pabpc1 (GeneID 18458) | 3 | normal viability with and without drug | 0.72 | 0.97 | 0.74 |
| Pabpc1 (GeneID 18458) | 4 | low viability with and without drug | 0.58 | 0.92 | 0.63 |
